# Assay results reported in PubChem BioAssay AID1688 (National Center for Advancing Translational Sciences (NCATS), 2009).
# In all, about 220,000 compounds went through this assay and about 2,400 (1.1%) were called active. The shares of active, inactive and inconclusive entries below differ from those in the screen. Calls come from the whole dose curve; as a rule, active = well fitted inhibition curve with a large enough effect; inconclusive = small, poorly fitted or top-dose-only effect, or effect the other way; inactive = no such curve, though single readings can be large or run the other way. Potencies of inconclusive entries are doubtful fits and often do not repeat.
# Test: qHTS Multiplex Assay to Identify Dual Action Probes in a Cell Model of Huntington: Aggregate Formation (GFP); note: nearly all actives have a fitted effect of over 60% in size
# Details: PC12 HttQ103-GFP aggregates, Acumen cytometry, 40 h; activity change, negative = inhibition: at 46.1 µM (top of the series) unless noted
# How it was run: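 Huntingtin Q103 exon 1–GFP aggregates in induced PC12 cells (100 nM tebufenozide) were quantified by cytometry from lysates, with compounds dosed in titration.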
# % is set by controls: 0 for no effect and ±100 for the full control effect; potency is the fitted concentration of half-maximal effect.
SMILES,"activity change, negative = inhibition",Potency
CN(C)c1ccc(CN(C(=O)c2ccc(Cl)c([N+](=O)[O-])c2)C2CCS(=O)(=O)C2)cc1 (configuration not stated),inactive: -2.06% [at 9.22 µM],–
Cc1ccc(NC(=O)c2cc(C)n(-c3ccccc3)c2C)cc1,–,"inconclusive: 35.5 µM [activator, single point]"
O=C(CSc1nnnn1C1CCCCC1)NNC(=O)c1ccco1,inactive: -2.78% [at 9.22 µM],–
Cc1cc(-c2ccccc2)nc(N/N=C/c2ccc([N+](=O)[O-])cc2)n1,–,active: 0.0282 µM
Cc1n[nH]c(=S)n1/N=C/c1ccc(OCc2ccc(Cl)cc2)cc1,–,"inconclusive: 7.08 µM [activator, partial curve]"
Cc1nn(-c2ccccc2)c(Cl)c1C(=O)N1CCN(c2ncnc3c2cnn3-c2ccccc2)CC1,–,"inconclusive: 15.8 µM [inhibitor, single point]"
CCc1cc(C(=O)COc2ccc(F)cc2)c(O)cc1O,–,"inconclusive: 35.5 µM [inhibitor, single point]"
O=C(CN1CCCCCC1)N1c2ccccc2Sc2ccc(C(F)(F)F)cc21,–,"inconclusive: 35.5 µM [inhibitor, single point]"
Cc1ccc(C2=N/C(=C\c3cccs3)C(=O)N2Nc2ccccc2)cc1,–,"inconclusive: 2.51 µM [activator, partial curve]"
C=CCOC(=O)C1=C(C)NC(SC)=C(C#N)C1c1cccs1 (configuration not stated),inactive: -0.808%,–
Cc1cc(C(=O)CSc2nncs2)c(C)n1-c1ccc2c(c1)OCO2,–,"inconclusive: 31.6 µM [inhibitor, single point]"
COc1ccc(S(=O)(=O)NCc2ccncc2)cc1OC,–,"inconclusive: 28.2 µM [inhibitor, single point]"
COc1ccc(CCNC(=O)CN2CCC(C)CC2)cc1OC,inactive: -2.27%,–
CC(=O)c1c(C)[nH]c(C(=O)OCC(=O)Nc2cccc(S(=O)(=O)N(C)C)c2)c1C,–,"inconclusive: 17.8 µM [inhibitor, single point]"
CN1CCN(S(=O)(=O)c2ccc(Br)s2)CC1,–,"inconclusive: 15.8 µM [inhibitor, single point]"
CCC(C)(C(=O)NC1CCCC1)N(Cc1cccs1)C(=O)c1ccccn1 (configuration not stated),–,"inconclusive: 5.62 µM [inhibitor, single point]"
CCc1ccc2c(c1)C(O)(CC(=O)c1cccs1)C(=O)N2 (configuration not stated),–,"inconclusive: 35.5 µM [activator, single point]"
COc1cc(/C=N/NC(=O)CCC(=O)NCc2ccccc2)cc(OC)c1OC,inactive: -4.46%,–
CSc1nsc(SCC(=O)Nc2ccc(Br)cn2)n1,inactive: 1.56%,–
CCCCN(CC)CCCNC(=S)Nc1ccc2nc(N3CCN(CC)CC3)cc(C)c2c1,–,"inconclusive: 28.2 µM [inhibitor, single point]"
Cc1ccc(N2C(=O)C3C4C=CC(CNC(=S)Nc5cccc(Cl)c5)(O4)C3C2=O)cc1 (configuration not stated),inactive: 7.99%,–
Cn1cnnc1SCC(=O)c1ccc2c(c1)OCCO2,–,"inconclusive: 5.01 µM [inhibitor, partial curve, poor fit]"
NC(=S)n1[nH]c(-c2ccc([N+](=O)[O-])cc2)c(N=Nc2cccc(Cl)c2)c1=O,–,"inconclusive: 14.1 µM [inhibitor, single point]"
COC(C)(C)[C@]12CC(O)(c3ccccc3)ON1[C@H]1CCCCC1N2O (some centres not stated),–,"inconclusive: 5.62 µM [activator, single point]"

SMILES,"activity change, negative = inhibition",Potency
CCN(CC)S(=O)(=O)c1ccc(NC(=O)CC(NC(C)=O)c2ccccc2)cc1 (configuration not stated),–,"inconclusive: 0.562 µM [inhibitor, full curve, poor fit]"
O=C(c1ccccc1)N1CCCCC(Cl)C1=O (configuration not stated),inactive: 5.57%,–
c1ccc(-n2nnc3cnccc32)cc1,inactive: 7.41%,–
COc1ccc(C(=O)N[C@H](C(=O)OCc2cc(=O)oc3cc(C)ccc23)C(C)C)cc1,–,"inconclusive: 22.4 µM [activator, partial curve, poor fit]"
O=C(O)c1cc(-c2ccccc2)n(-c2ccccc2C(=O)O)n1,–,"inconclusive: 25.1 µM [inhibitor, single point]"
CNc1nc(N)nc(-c2cc(Cl)ccc2OC)n1,inactive: -1.39% [at 9.22 µM],–
COc1ccc(-n2nnnc2SCC(=O)Nc2nnn(C)n2)cc1,–,"inconclusive: 5.62 µM [inhibitor, single point]"
CCCCCc1ccc(OCCC[n+]2ccccc2)c(CCCCC)c1,–,active: 3.16 µM
O=C(Nc1nc2ccc(F)cc2s1)C1CCN(S(=O)(=O)c2cc([N+](=O)[O-])ccc2Cl)CC1,–,"inconclusive: 0.562 µM [inhibitor, full curve, poor fit]"
CCC(=O)Nc1c(OC(=O)CC)ccc2c(C)cc(=O)oc12,–,"inconclusive: 3.98 µM [inhibitor, partial curve]"
O=C1C2C(C(=O)N1/N=C/c1cccc([N+](=O)[O-])c1)C1C=CC2C12CC2 (configuration not stated),inactive: 23%,–
CCOc1ccc(C(=S)NC2CCCCC2)cc1OC,inactive: 2.46%,–
CC(C)CCNC(=O)C1CCN(c2nc3ccccc3o2)CC1,–,"inconclusive: 4.47 µM [inhibitor, single point]"
O=C(c1ccc(F)cc1)[C@@H]1[C@@H](C(=O)c2ccccc2)[C@@]2(C(=O)Nc3ccccc32)[C@H]2c3ccccc3C=CN12,inactive: 5.45%,–
CN(C)CCCN(C(=O)/C=C/c1cccs1)c1nc2c(F)cccc2s1,–,"inconclusive: 35.5 µM [inhibitor, single point]"
c1ccc(Cn2c(CNc3nc4ccccc4n3CCN3CCCCC3)nc3ccccc32)cc1,–,"inconclusive: 35.5 µM [inhibitor, single point]"
O=C(NC1=C(Nc2ccc(Cl)cc2)C(=O)c2ccccc2C1=O)c1ccccc1,–,"inconclusive: 20 µM [inhibitor, single point]"
O=C(CSc1nnc(-c2c[nH]c3ccccc23)o1)N1CCCCC1,inactive: 6.87%,–
CC(C)(C)n1nnnc1C(c1cccs1)N(Cc1cccnc1)Cc1ccccc1Cl (configuration not stated),–,"inconclusive: 35.5 µM [inhibitor, single point]"
O=C(Nc1nc(-c2ccc(F)cc2)cs1)c1cnccn1,–,active: 10 µM
Cc1cc(-c2nn(-c3ccccc3)cc2/C=C2\SC(N)=NC2=O)ccc1OC(C)C,inactive: 3.29%,–
N#CC1=C(N)Oc2cc(O)ccc2C1c1ccccc1 (configuration not stated),inactive: -10.4%,–
O=C(CSc1nc2[nH]ncc2c(=O)n1-c1ccccc1Br)NCc1ccco1,inactive: 14.4%,–
COc1ccc2nc(SCC(=O)NN)cc(C)c2c1,inactive: 1.64%,–

# Rewritten tab-delimited: part of the list above.
SMILES	activity change, negative = inhibition	Potency
c1ccc(Cn2c(CNc3nc4ccccc4n3CCN3CCCCC3)nc3ccccc32)cc1	–	inconclusive: 35.5 µM [inhibitor, single point]
O=C(NC1=C(Nc2ccc(Cl)cc2)C(=O)c2ccccc2C1=O)c1ccccc1	–	inconclusive: 20 µM [inhibitor, single point]
O=C(CSc1nnc(-c2c[nH]c3ccccc23)o1)N1CCCCC1	inactive: 6.87%	–
CC(C)(C)n1nnnc1C(c1cccs1)N(Cc1cccnc1)Cc1ccccc1Cl (configuration not stated)	–	inconclusive: 35.5 µM [inhibitor, single point]
O=C(Nc1nc(-c2ccc(F)cc2)cs1)c1cnccn1	–	active: 10 µM

# Following part:

SMILES,"activity change, negative = inhibition",Potency
CC(C)(C)c1nc(N2CCN(C(=O)c3ccco3)CC2)c2nnn(Cc3ccccc3)c2n1,–,"inconclusive: 15.8 µM [inhibitor, single point]"
N#CCc1ccc(NC(=O)/C=C/c2ccc([N+](=O)[O-])o2)cc1,–,"inconclusive: 5.62 µM [inhibitor, single point]"
CCCc1nnc(SCc2ccc(OCC)cc2)n1N,–,"inconclusive: 5.62 µM [inhibitor, single point]"
Cn1c(=O)cc(OCC(=O)N2CCC(N3CCCCC3)CC2)c2ccccc21,inactive: 24.3%,–
Cc1ccc(Nc2nc(N)nc(CN3CCN(c4ccccc4F)CC3)n2)cc1,–,"inconclusive: 11.2 µM [activator, partial curve]"
COc1ccc(NS(=O)(=O)c2ccc3oc4ccccc4c3c2)cn1,–,"inconclusive: 35.5 µM [inhibitor, single point]"
CC(=O)Nc1sc(/C(C#N)=C\c2cccc(Cl)c2)nc1-c1ccc(C)cc1,–,"inconclusive: 11.2 µM [inhibitor, partial curve, poor fit]"
Cc1ccc(C(=O)n2c(N)nc3ccccc32)cc1,inactive: 0.789% [at 9.22 µM],–
COc1ccc(N2C(=O)CN(Cc3cc(OC)c(OC)c(OC)c3)C2=S)cc1,–,"inconclusive: 35.5 µM [inhibitor, single point]"
O=C(O)C1CC(=O)n2c(nc3ccccc32)S1 (configuration not stated),inactive: 9.36%,–
Cc1nc2c(-c3ccc(Cl)cc3)c(C)[nH]n2c(=O)c1Cc1ccccc1,–,active: 10 µM
COc1cc(C(=O)Nc2nc(-c3cccs3)cs2)cc(OC)c1OC,–,"inconclusive: 35.5 µM [inhibitor, single point]"
COc1cccc(CNC(=O)c2cc3c(C)nc4ccccc4c3o2)c1,–,active: 10 µM
COc1ccc(NS(=O)(=O)c2cccc(NC(=O)c3cnccn3)c2)cc1Br,–,"inconclusive: 22.4 µM [inhibitor, single point]"
Cc1ccc(CS(=O)(=O)c2ncn[nH]2)cc1,inactive: 23.1%,–
CCn1c(=O)cc(SCC(=O)Nc2ccc(Cl)cc2)c2ccccc21,–,"inconclusive: 6.31 µM [activator, single point]"
Cc1ccc(C2C(C#N)=C(N)Oc3c2sc2ccccc32)o1 (configuration not stated),–,"inconclusive: 25.1 µM [inhibitor, single point]"
CC1=C(CC(=O)c2ccc(Cl)cc2)C(=O)c2ccccc2C1=O,–,active: 3.55 µM
Cn1c(=O)[nH]c(=O)c2c1nc(SCCN1CCCCC1)n2CCCc1ccccc1,inactive: -2.86%,–
Cn1c(N)c(C(=O)COC(=O)c2ccc(Cl)c(S(=O)(=O)N3CCCCC3)c2)c(=O)n(C)c1=O,inactive: 1.27%,–
O=C(O)c1ccc(CN2C(=O)CSC2=S)cc1,–,"inconclusive: 35.5 µM [inhibitor, single point]"
COc1ccc(S(=O)(=O)n2cnc3cc(C)c(C)cc32)cc1,–,"inconclusive: 10 µM [inhibitor, partial curve]"
Cc1ccc(N/C(N)=N/c2nc3c(c(=O)[nH]2)CCCC3)c(C)c1,inactive: 7.53%,–
Cc1ccc(-c2noc(CCCC(=O)N3CCOCC3)n2)cc1,–,"inconclusive: 20 µM [inhibitor, single point]"
